Data as given in PubChem BioAssay AID1671195 (Yale University, 2021)
The whole screen tested about 22,000 reagents; this is a random part of them. In the full data, about 1,510 (6.9%) were called active. 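Active includes knockdowns raising or lowering LDL uptake; positive z-scores mean more uptake, negative mean less.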 Unmarked entries are inactive. The numbers tell different reagents against one gene apart. Reagent sequences are not shown.

- Aim: 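Knockdowns that increase or decrease uptake of fluorescent LDL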 (primary screen)
- Cells: human Huh7 hepatoma cells
- Reagents: siRNA pool against human genes, 18 nM
- Duration: about 2 to 2.5 days of knockdown, then 8 h LDL uptake
- Challenge: DiI-labelled LDL at 30 µg/ml for 8 h, in lipoprotein-deficient serum medium
- Read-out: 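Per-cell DiI-LDL intensity by automated imaging; well means scaled to the plate median and given as a robust z-score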
- Direction: robust z-score: higher = more LDL uptake after knockdown
- Call rule: 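a gene counts as active if at least two replicate z-scores exceed ±2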

target	reagent	robust z-score, replicate 1	robust z-score, replicate 2	robust z-score, replicate 3
PCP4	1	0.126	-1.25	0.0414
C20orf203	1	0.797	0.71	-0.121
H1-7	1	-0.914	-1.35	-1.35
LOC283029 (retired record)	1	-0.361	-0.256	-0.127
NCK1	1	-0.375	-0.789	-0.825
ERICH1	1	0.587	-0.388	-0.563
ERICH1	2	-1.19	-1.16	-0.928
RPL7L1	1	0.407	0.333	0.616
TOX2	1	-0.0396	-0.238	0.226
LOC401123 (retired record)	1	-0.172	-0.776	-0.00443
TATDN3	1	-0.563	0.275	-0.0996
KRTAP6-2	1	0.725	0.476	0.67
SLC10A3	1	0.714	0.724	0.297
ATP9B	1	1.11	0.325	1.21
LOC402072 (retired record)	1	1.31	1.82	1.43
LOC389325 (retired record)	1	-0.69	-0.492	-0.403
SPRR3	1	-0.664	-1.31	-0.863
MYCN	1	1.24	0.819	0.0782
KCNQ1	1	0.138	-0.516	0.552
BRSK1	1	-0.869	-0.849	-1.17
MIR100HG	1	0.0182	0.263	0.129
STRIP1	1	-0.822	-0.034	-0.695
LOC440380 (retired record)	1	-1.29	-1.33	-1.48
TRAPPC9	1	-1.62	-1.62	-1.96
ZNF467	1	0.338	0.281	0.142
CPE	1	1.13	1.04	0.542
INTS1	1	-1.69	-2.77	-1.75
LOC729770	1	0.432	0.561	0.641
LOC441465 (retired record)	1	-0.501	-0.161	0.191
MBD3	1	-0.197	0.179	0.371
COX4I1P1	1	0.818	0.922	0.69
NACA3P	1	0.696	-0.0166	0.488
LOC440707 (retired record)	1	-1.65	-1.02	-1.48

Continued; the last 6 above are carried over.
target	reagent	robust z-score, replicate 1	robust z-score, replicate 2	robust z-score, replicate 3
LOC729770	1	0.432	0.561	0.641
LOC441465 (retired record)	1	-0.501	-0.161	0.191
MBD3	1	-0.197	0.179	0.371
COX4I1P1	1	0.818	0.922	0.69
NACA3P	1	0.696	-0.0166	0.488
LOC440707 (retired record)	1	-1.65	-1.02	-1.48
TXNDC16	1	-1.03	-1.45	0.67
ELF4	1	-0.143	0.523	0.0994
SAMD5	1	-0.485	-1.08	-1.17
NLRC4	1	1.71	2.19	0.86
UBL3	1	-1.03	1.01	-1.27
CLTB	1	0.962	0.614	0.833
HTR1E	1	-0.394	-0.0888	-0.48
ABLIM2	1	1.02	1.78	1.34
BAHCC1	1	-0.979	0.538	-0.283
SYN3	1	-0.84	-1.28	-1.57
SNX27	1	-2.08 (active)	-2.24	-2.01
CNTN4	1	-1.01	-1.73	-1.55
BTN3A2	1	-0.0987	-0.332	0.137
HCCS	1	-0.569	0.949	-0.319
LOC441927 (retired record)	1	-0.545	-0.106	-0.562
KCNA2	1	-0.207	-0.15	-0.525
SFTPC	1	-0.477	0.693	-1.18
UGT1A9	1	1.2	1.47	1.94
SLC12A1	1	-1.76	-1.2	-1.13
LMLN	1	1.09	0.835	1.59
ITGB1BP2	1	1.69	2.3	1.01
MARF1	1	1.81	-0.152	0.376
MCAM	1	1.63	1.08	0.023
PLA2G2F	1	-1.72 (active)	-2.1	-1.85
FEV	1	-0.0611	1.16	-0.382
CLCA3P	1	-1.51	-1.07	-1.79
ZSCAN9	1	-1.03	-0.584	-0.00433
UFC1	1	-2.04 (active)	-0.409	-2.48
ZRANB2	1	0.182	0.414	0.285
URB1-DT	1	-0.0145	0.0867	0.545
ZC3H8	1	-1.94	-1.71	-1.02
LRP2BP	1	-0.127	-1.02	-0.333
ZBTB24	1	0.602	0.461	0.414
RPL10P17	1	-0.601	-1.09	-0.618
LINC01446	1	-0.0268	-0.241	-0.796
